Earlier results, collected in US6593144B2, “Magnetic resonance imaging using hyperpolarized noble gases” (The Trustees of Princeton University, priority 1994, dated 2003).
At least one structure is not confirmed: it was looked up by name or label, or the drawing left a doubt.

Conditions: cited from earlier work

[Xe] [Xenon]
distribution ratio between octanol and water: 20:1
